Publication doi:10.64898/2025.12.13.694119
These are yes or no findings as the source states them, for the method shown. Binding seen in cells or lysates may run through a third protein. Some results given as binding are weak or reduced against the parent protein; the word gives no strength.

Sequences of proteins named here, by UniProt entry; tags and fusion partners are left off. Residues count along the entry.
UniProt P37231, residues 29-505: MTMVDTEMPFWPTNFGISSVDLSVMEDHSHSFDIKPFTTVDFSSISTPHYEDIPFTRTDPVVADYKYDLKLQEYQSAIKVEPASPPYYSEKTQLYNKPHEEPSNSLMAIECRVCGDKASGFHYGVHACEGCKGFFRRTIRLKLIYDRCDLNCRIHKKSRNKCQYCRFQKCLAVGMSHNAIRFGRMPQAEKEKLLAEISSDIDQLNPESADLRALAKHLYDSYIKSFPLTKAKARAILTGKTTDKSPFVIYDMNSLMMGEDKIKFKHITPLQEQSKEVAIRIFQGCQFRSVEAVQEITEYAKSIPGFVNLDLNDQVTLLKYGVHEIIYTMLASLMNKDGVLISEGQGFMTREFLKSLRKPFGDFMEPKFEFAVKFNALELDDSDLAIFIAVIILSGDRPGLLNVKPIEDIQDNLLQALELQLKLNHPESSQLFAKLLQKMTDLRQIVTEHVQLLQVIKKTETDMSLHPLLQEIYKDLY

Molecular target: T1, CDC14B (UniProt O60729)
T1 sequence: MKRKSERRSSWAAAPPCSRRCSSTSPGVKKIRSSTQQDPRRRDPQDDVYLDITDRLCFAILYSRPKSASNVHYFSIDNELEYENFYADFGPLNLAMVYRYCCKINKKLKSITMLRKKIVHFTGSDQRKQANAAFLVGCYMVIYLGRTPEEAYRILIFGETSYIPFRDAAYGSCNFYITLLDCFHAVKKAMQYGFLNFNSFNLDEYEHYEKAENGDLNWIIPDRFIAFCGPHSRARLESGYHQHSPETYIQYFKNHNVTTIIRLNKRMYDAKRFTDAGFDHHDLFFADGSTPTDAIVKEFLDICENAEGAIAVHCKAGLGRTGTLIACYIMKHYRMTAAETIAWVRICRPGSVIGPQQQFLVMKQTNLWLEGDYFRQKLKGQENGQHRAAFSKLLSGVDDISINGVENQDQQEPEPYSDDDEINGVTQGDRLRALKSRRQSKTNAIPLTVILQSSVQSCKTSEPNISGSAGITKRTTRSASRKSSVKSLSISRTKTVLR
Test: co-IP

## PPARγ1 (from UniProt P37231-2 1-477)
  binding: binds
